{
  "sequences": {"note": "Chains of the proteins cited; added tags and fusions are not shown.", "UniProt P25685": "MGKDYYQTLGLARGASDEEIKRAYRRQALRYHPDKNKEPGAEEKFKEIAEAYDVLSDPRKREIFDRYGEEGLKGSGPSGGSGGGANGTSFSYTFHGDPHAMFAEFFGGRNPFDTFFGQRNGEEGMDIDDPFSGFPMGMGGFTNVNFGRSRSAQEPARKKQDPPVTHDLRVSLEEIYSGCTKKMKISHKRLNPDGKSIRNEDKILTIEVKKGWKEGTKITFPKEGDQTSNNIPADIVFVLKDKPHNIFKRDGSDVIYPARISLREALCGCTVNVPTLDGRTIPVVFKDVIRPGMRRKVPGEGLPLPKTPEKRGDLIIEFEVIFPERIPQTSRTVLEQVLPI"},
  "source": "paper PMC8304327",
  "key": {"[1]": {"molecular_target": "HA-Hsp90β^S226A/S255A (human) (UniProt P08238)", "assay": "affinity purification with mass spectrometry; SILAC duplex; anti-HA co-IP as in the label-free experiment, WT from heavy cells and AA from light cells pooled after elution, four replicates, H/L ratios aligned on Hsp90β"}, "[2]": {"molecular_target": "HA-Hsp90β^S226A/S255A (human) (UniProt P08238)", "assay": "affinity purification with mass spectrometry; label-free; anti-HA co-IP from lysates of transfected HEK293T-Hsp90βKO19 cells (1% NP40, 20 mM HEPES pH 7.5, 50 mM KCl, 5 mM MgCl2), 4 °C overnight, protein G agarose, LC-MS/MS; untagged WT Hsp90β as negative control; done twice with 3 replicates each"}},
  "note": "Results are given in words; binding and its absence hold for the method and conditions named. Binding seen in cells or lysates may run through a third protein. A yes stands for co-enrichment or nearness to the bait. Other partners may have been found.",
  "data": [
    {"substance": "Hsp40 (DNAJB1) (from UniProt P25685 1-340)", "values": [
      {"measurement": "binding", "setting": "[1]", "value": "binds"},
      {"measurement": "binding", "setting": "[2]", "value": "binds"}
    ]}
  ]
}
